# Binding screen against folded nucleic acids

Calls as published in the ROBIN set (doi:10.1002/anie.202211358).

Targets, with sequences 5′ to 3′:
T1: TPP riboswitch RNA three-way junction, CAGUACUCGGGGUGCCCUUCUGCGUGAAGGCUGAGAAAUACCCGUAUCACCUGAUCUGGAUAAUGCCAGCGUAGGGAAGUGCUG. Hit rate about 0.7% of about 24,000 compounds.
T2: PreQ1 riboswitch RNA pseudoknot, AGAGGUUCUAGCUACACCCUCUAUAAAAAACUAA. From B. subtilis. Hit rate about 0.7% of about 24,000 compounds.
T3: SAM-II riboswitch RNA pseudoknot, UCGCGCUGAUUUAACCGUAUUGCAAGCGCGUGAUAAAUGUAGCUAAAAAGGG. Hit rate about 1% of about 21,000 compounds.

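The test is a small-molecule microarray: each compound is printed twice on a reactive slide, and binding shows as fluorescence of the labelled oligonucleotide after washing. For the PreQ1, TPP and SAM-II riboswitches the laboratory earlier reported (doi:10.1038/s41467-019-09493-3) 1 µM RNA, 2 h, and a rule that included a mean Z-score above 3 (spot signal-to-noise against the whole library), a score well above that on a control array, and duplicate spots agreeing (coefficient of variation under 100). The data file gives only the calls; its cut-offs may differ, and compounds hitting several targets are kept. The calls come from the array alone, and fixing a compound to the slide can hide its binding.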 “yes” means called a hit, “no” means screened and not called a hit. Compounds were drawn at random from those tested, without regard to their results. A dash means that no call is listed here.

compound,T1,T2,T3
Cc1cc(C)n2nc(C(=O)N[C@H]3CC[C@H]3NC3CCOCC3)cc2n1,no,no,no
c1ccc(CN2CC[C@H]3CC[C@@H](C2)N3)nc1,no,no,no
CCc1nc2ccccc2n1CC(O)COc1ccccc1Cl (stereo not given),no,no,no
O=C(c1ccoc1)N1CCN(c2ccc3ccccc3n2)CC(O)C1 (stereo not given),no,no,no
Cc1ccc(-c2nc3c(c(=S)[nH]2)Cc2c(CO)cnc(C)c2O3)cc1,no,no,no
CC1CCc2nc(N)c(C#N)c(-c3ccncc3)c2C1 (stereo not given),no,no,no
COc1ccc(S(=O)(=O)[C@H]2CS(=O)(=O)C[C@@H]2NCC2CCCO2)cc1 (stereo not given in full),no,no,-
COc1ccc2ccc(OCc3nc(C(=O)NCc4cccnc4N)co3)cc2c1,no,no,no
c1ccc(-c2nc3c(c(NCC4CCOC4)n2)CCNCC3)cc1 (stereo not given),no,no,no
CCC(C)Nc1nc(C)nc2c1sc1nc3c(cc12)COC(C)(C)C3 (stereo not given),no,no,no
COc1ccc(F)c(F)c1C(=O)c1cnc(NC2CCN(S(C)(=O)=O)CC2)nc1N,no,no,no
O=S(=O)(c1ccc(Cl)s1)N1CC[C@H]2NCCC[C@]2(CO)C1,no,no,no
Cc1ccc(C)c(CCNc2cc(C3CCNCC3)ncn2)c1,no,no,no
CCC(C)NC(=O)CC(C)C (stereo not given),no,no,no
CCC(=C(c1ccc(OC)cc1)c1ccc(OC)cc1)c1cn(CC(O)CN2CCOCC2)c2ccccc12.Cl (stereo not given),no,no,no
OCCCc1nc2ccccc2n1Cc1ccccc1,no,no,no
Nc1cccc2cn[nH]c12,no,no,no
COc1ccc(OC)c(Nc2c(-c3ccc(Cl)cc3)c(=O)c2=O)c1,no,no,-
O=C(CC1COCCN1)NCc1nnnn1-c1ccccc1 (stereo not given),no,no,no
Nc1cc(C(=O)N2CCc3onc(-c4cccc5ccccc45)c3C2)n[nH]1,yes,yes,yes
Cc1ccsc1CN(C)c1ncc(S(C)(=O)=O)c(C2CCCNC2)n1 (stereo not given),no,no,no
CCOc1c(CNCc2ccncc2)cccc1OC,no,no,no
CCn1c(C(=O)O)c(CNCCc2ccccc2C)c2ccc(OC)cc21,no,no,-
CCOC(=O)c1c(N)n(C2CCCCC2)c2nc3ccccc3nc12,no,no,no
Cc1ccc(C2Nc3ccccc3NC3=C2C(=O)CC(c2ccccc2)C3)cc1[N+](=O)[O-] (stereo not given),no,no,no
Cc1ccc(NC(c2cccnc2)c2ccc3cccnc3c2O)cc1C (stereo not given),no,no,no
Cc1cc(C)c2c(N)c(C(=O)OCc3ccccc3)sc2n1,no,no,no
CC[C@@]1(O)CCN(C(=O)Cn2nc(C)cc2N)C[C@H]1O,no,no,no
N#CC1C=Cc2c(ccc3ccccc23)N1C(=O)c1ccccc1 (stereo not given),no,no,no
CCOC(=O)c1cc(Nc2ccc(C(C)=O)cc2)c2cc(Cl)ccc2n1,no,no,no
OCc1csc(-c2cccc3cnccc23)n1,no,no,no
CSc1ncccc1-c1nc(C2CCCC2)nn1CCO,no,no,no
O=C(Cc1ccc(O)c(Cl)c1)N1CC[C@H](N2CCOCC2)[C@H](CCCO)C1,no,no,no
CC(O)CCNS(=O)(=O)c1ccc2c(c1)CN(C(=O)CCn1cccn1)CC2 (stereo not given),no,no,no
CCCC(=O)C1=C(NCCc2c(C)[nH]c3ccccc23)CCCC1=O,no,no,no
COc1ccc(CCNCc2ccccc2Cl)cc1,no,no,no
Cc1nn(C)c(C)c1-c1cc(C(=O)N[C@H]2CC[C@H]2NC(C)C)n(C)n1,no,no,no
CCCCNCC(O)COc1c(Br)ccc2c1sc1nc3n(c(=O)c12)CCCCC3 (stereo not given),yes,no,no
Cc1ncsc1CCCn1ccnc1-c1cc2n(n1)CCNC2,no,no,no
CCc1nc2sc(C(=O)c3ccccc3)c(N)c2cc1C,no,no,no
c1ccc(-n2nnnc2SCCNCc2cccs2)cc1,no,no,-
CC(=O)C1=C(NCCc2nc3ccccc3[nH]2)CC(C)(C)CC1=O,no,no,no
Cc1cccc(OCC(O)Cn2cnc3ccccc32)c1C (stereo not given),no,no,-
C1C2CC3C1C3/C2=N\N=C1/C2CC3C(C2)C13,no,no,no
CCN1CCCC1Cn1c(C)c(C)c(S(=O)(=O)c2ccc(Cl)cc2)c1N (stereo not given),no,no,no
O=C1CCC2(CCCN(c3ccc(-c4ccccc4)nn3)C2)CN1CCCO (stereo not given),no,no,no
Cc1ccn2c(Nc3ccccc3)c(-c3cccnc3)nc2c1,no,no,no
CCC(O)c1nc2ccccc2n1CC(=O)N(CC(C)C)CC(C)C (stereo not given),no,no,-
COc1cccc(OC)c1-c1c(-c2ccccc2)ncn1CC1(CO)CCC1,no,no,no

Some entries from above, unchanged:

compound	T1	T2	T3
CCN1CCCC1Cn1c(C)c(C)c(S(=O)(=O)c2ccc(Cl)cc2)c1N (stereo not given)	no	no	no
Cc1ccsc1CN(C)c1ncc(S(C)(=O)=O)c(C2CCCNC2)n1 (stereo not given)	no	no	no
O=C1CCC2(CCCN(c3ccc(-c4ccccc4)nn3)C2)CN1CCCO (stereo not given)	no	no	no
Cc1cc(C)c2c(N)c(C(=O)OCc3ccccc3)sc2n1	no	no	no
CCc1nc2ccccc2n1CC(O)COc1ccccc1Cl (stereo not given)	no	no	no